In patent publication US4604386A, “3-(alkynylalkyloxy) cephalosporins” (Eli Lilly and Company, priority 1984, dated 1986) one finds concentration data, which are given here for one compound.

A short description of series [1]: in vivo. The note with it: mouse, po, 20 mg/kg.
Series [2] in a line: in vivo. The note with it: rat, po, 20 mg/kg.

Take `CC1=C(C(=O)O)N2C(=O)[C@@H](NC(=O)[C@H](N)c3ccccc3)[C@H]2SC1` [3-methyl, cephalexin monohydrate, reference compound]: in series [1], the concentration at 20 min was 23500 ng/mL, the concentration at 40 min is 10500 ng/mL, the concentration at 1 h was 5200 ng/mL and the concentration at 2 h amounted to 1000 ng/mL. For the same compound, in series [2], the concentration at 20 min was determined as 2800 ng/mL, the concentration at 1 h is 5700 ng/mL, the concentration at 2 h came to 6000 ng/mL and the concentration at 4 h was 5200 ng/mL. In series [2], this compound registered a concentration at 6 h of 3200 ng/mL and a concentration at 9 h of 1100 ng/mL.
